In PubChem BioAssay AID540256 (National Center for Advancing Translational Sciences (NCATS), 2011):
The campaign covered roughly 300,000 compounds. About 3,700 (1.2%) were called active. Inconclusive results, whose numbers are uncertain, are shown with a selection of clear calls. Calls come from the whole dose curve; tested in HEK293 cells. Potencies beside an inconclusive call are fits to weak or partial responses and may not hold up.

Test: qHTS for Inhibitors of binding or entry into cells for Lassa Virus; note: nearly all actives have a fitted effect of over 50% in size
Settings: Lassa virus pseudotype entry inhibition, cell reporter; series mostly up to 37.9 µM
Potency is the fitted concentration of half-maximal effect.

SMILES	Potency
CCCCCCNC(=O)CC(c1ccccc1)c1cc(Br)ccc1O (stereo not drawn)	inconclusive: 20 µM [inhibitor, single point]
COC1CCCN(C(=O)c2ccc(OC3CCN(S(=O)(=O)N(C)C)CC3)cc2)C1 (stereo not drawn)	inconclusive: 1.26 µM [inhibitor, full curve]
Clc1ccc(OCCN2CCCCC2)c(Cl)c1	inactive
CCN(Cc1ccncc1)C(=O)c1cc(COc2ccc(OC)cc2Cl)on1	inconclusive: 0.708 µM [activator, partial curve]
Cc1ccc(S(=O)(=O)N2CCN(Cc3nnc(-c4c(-c5ccccc5)noc4C)o3)CC2)cc1	inactive
COc1ccccc1CNS(=O)(=O)c1cc(-c2cc(C)no2)ccc1C(C)C	inconclusive: 10 µM [inhibitor, partial curve, poor fit]
O=C(N/N=C/c1ccc2c(c1)OCO2)c1ccn(Cc2ccc(Cl)cc2)n1	inconclusive: 0.631 µM [activator, single point]
CC(C)c1ccc2oc(-c3ccc(Cl)c(NC(=O)Cc4ccccc4)c3)nc2c1	inconclusive: 35.5 µM [activator, single point]
CN1/C(=C\C(=O)CN2C(=O)NC3(CCCCCC3)C2=O)C(C)(C)c2ccccc21	inconclusive: 28.2 µM [inhibitor, single point]
Cc1ccc2c(C)c(C(=O)N(Cc3ccncc3)CC3CCCO3)oc2c1C (stereo not drawn)	inactive
Cc1cc(C)cc(Oc2ccc(N)cc2)c1	inconclusive: 32.6 µM [inhibitor, single point]
Cc1cc(/C=C2/C(=O)NN(c3ccccc3)C2=O)c(C)n1-c1ccc(O)cc1	inconclusive: 8.2 µM [inhibitor, partial curve, poor fit]
COc1ccc(NS(=O)(=O)c2cc3c4c(c2)CCN4C(=O)CC3)c(OC)c1	inconclusive: 6.31 µM [inhibitor, single point]
CCCn1cc(S(=O)(=O)c2ccc(CC)cc2)c(=O)c2cc(F)c(N3CCN(C)CC3)cc21	inactive
Cn1cc(Br)c(C(=O)NNC(=O)c2ccccc2)n1	inconclusive: 5.62 µM [inhibitor, single point]
Cc1ccc(C(=O)O/N=C(\c2ccccc2)c2ccncc2)cc1	inactive
Cc1ccccc1OCc1nnc(SCC(=O)NCc2ccccc2)n1C	inactive
CC(C)c1ccc(C2=NC(c3ccncc3)=Nc3ccc(F)cc3N2)cc1	inconclusive: 15.8 µM [activator, single point]
CC(C)c1nnc(NC(=O)c2ccc3ccccc3c2)s1	inconclusive: 28.2 µM [inhibitor, single point]
Cc1ccc(NC(=O)c2ccc(N(Cc3ccccc3)S(C)(=O)=O)cc2)cc1	inconclusive: 1.12 µM [inhibitor, full curve, poor fit]
CC(=O)c1ccc(NS(=O)(=O)c2ccc(CC(C)C)cc2)cc1	inconclusive: 0.103 µM [activator, full curve, poor fit]
O=C(Nc1cccc(NC(=O)c2cccs2)c1)c1ccc2c(c1)OCCO2	inactive
CCOC(=O)c1ccc(N2C(=O)c3n[nH]c(-c4cccs4)c3C2c2ccc(OC)cc2OC)cc1 (stereo not drawn)	inconclusive: 12.6 µM [inhibitor, single point]
CC(=O)N1CCc2cc(S(=O)(=O)NC(C(=O)NCc3ccccc3)C(C)C)ccc21 (stereo not drawn)	inactive
CSc1ccccc1C(=O)C1CCCN(C(=O)CCN2CCCO2)C1 (stereo not drawn)	inactive

Shown bar-delimited: 4 of the compounds above
SMILES | Potency
Cc1ccc(S(=O)(=O)N2CCN(Cc3nnc(-c4c(-c5ccccc5)noc4C)o3)CC2)cc1 | inactive
Cc1ccc2c(C)c(C(=O)N(Cc3ccncc3)CC3CCCO3)oc2c1C (stereo not drawn) | inactive
CC(C)c1ccc(C2=NC(c3ccncc3)=Nc3ccc(F)cc3N2)cc1 | inconclusive: 15.8 µM [activator, single point]
Cc1ccc(NC(=O)c2ccc(N(Cc3ccccc3)S(C)(=O)=O)cc2)cc1 | inconclusive: 1.12 µM [inhibitor, full curve, poor fit]

Next records follow:

SMILES	Potency
CCN1C(=O)NC(c2cccc(C(F)(F)F)c2)C(C(C)=O)=C1C (stereo not drawn)	inconclusive: 0.596 µM [activator, single point]
CCCOc1ccc(-c2nc(C#N)c(NCCCn3ccnc3)o2)cc1	inactive
O=C(Cn1cc(SCc2ccccc2F)c2ccccc21)N1CCCC1	inconclusive: 3.16 µM [activator, single point]
COc1ccc(/C=C2\N=C(SC)SC2=O)cc1OC	inactive
COc1ccc2c(c1)CC(C(=O)Nc1ccc(OC)cc1OC)CO2 (stereo not drawn)	inconclusive: 15.8 µM [inhibitor, single point]
CC(C)=CCCC(C)=CCON=C1C[C@@H](O)[C@@H](O)[C@@H]2[C@H]3C(=O)N(Cc4ccc5c(c4)OCO5)C(=O)[C@@H]3CC[C@@H]12	inactive
O=S(=O)(c1ccc(OC(F)(F)F)cc1)N1CCC(c2nc3ccccc3s2)CC1	inactive
C/C(=N\NC(=O)Cc1ccccc1)c1cccs1	inactive
Cn1c(=S)[nH]c2ccccc21	inactive
COc1ccc(/C=C(/NC(=O)c2ccc(OC)cc2)C(=O)NCCc2c[nH]c3ccccc23)cc1	inconclusive: 0.411 µM [inhibitor, partial curve, poor fit]
COc1ccc2c(c1)-c1nc(/N=C/c3ccc(O)cc3)sc1CC2	inconclusive: 1.26 µM [activator, single point]
CC1CCc2nc(/C(C#N)=C/c3cccnc3)sc2C1 (stereo not drawn)	inconclusive: 0.562 µM [activator, full curve, poor fit]
CCOc1ccc2nc(N3CCC(C(=O)NCCCN4CCOCC4)CC3)sc2c1	inactive
CC(=O)c1ccc(NC(=O)CSc2nnc(Cn3cnc4ccccc43)o2)cc1	inactive
CCCCOCCCN1CC(=O)N2[C@@H](Cc3c([nH]c4ccccc34)C2(C)C)C1=O	inconclusive: 35.5 µM [inhibitor, single point]
CN(C)c1ccc(C2NC(=O)c3ccccc3N2)cc1 (stereo not drawn)	inconclusive: 22.4 µM [inhibitor, single point]
CC1CCN(C(=O)CN(Cc2ccc(F)cc2)S(C)(=O)=O)CC1	inactive
C/C(Cn1nnc2ccccc21)=N\NC(=O)c1ccc(Br)cc1	inactive
Cc1ccc(NCC(=O)N/N=C\C(Br)=C\c2ccccc2)cc1	inconclusive: 25.9 µM [inhibitor, single point]
CN1CCN(C(=S)NCCc2ccccc2)CC1	inactive
Cc1onc(-c2ccccc2Cl)c1C(=O)Oc1cc(N)n(S(=O)(=O)c2ccc(F)cc2)n1	inactive
CC(/C=C1\SC(=S)N(NC(=O)c2ccc(C)cc2)C1=O)=C\c1ccccc1	inconclusive: 25.9 µM [inhibitor, single point]
COc1ccc(NC(=O)c2c(NCc3cccs3)sc3c2CCCCC3)c(OC)c1	inactive
COC(=O)N1[C@H](C)C=C[C@]1(Cc1ccccc1)C(=O)O	inactive
COc1ccc(C(CC(=O)Nc2nccs2)n2cccc2)cc1 (stereo not drawn)	inconclusive: 0.141 µM [activator, full curve, poor fit]

SMILES	Potency
CN(C)CCNC(=O)c1ccc(COc2ccc(Cl)cc2Cl)cc1	inconclusive: 16.4 µM [inhibitor, single point]
O=C(NCc1ccccc1)c1ccc2c(c1)N(Cc1ccc(F)cc1)CCS2	inconclusive: 10 µM [inhibitor, partial curve, poor fit]
O=c1c2ccccc2cnn1-c1ccc2ccccc2c1	active: 10.3 µM
CCN(Cc1ccccc1OC)CC1CCCN(CCc2cccc(OC)c2)C1 (stereo not drawn)	inconclusive: 28.2 µM [inhibitor, single point]
N#CC1=C(N)Oc2c(ccc3ccccc23)C1c1cccs1 (stereo not drawn)	inconclusive: 0.0891 µM [inhibitor, full curve, poor fit]
CC(=NCc1ccc2c(c1)OCO2)c1c(O)n(-c2ccccc2)c(=O)[nH]c1=O	inconclusive: 4.47 µM [inhibitor, full curve, poor fit]
O=C(Nc1ccc(F)c(Cl)c1)Nc1csc2ccccc12	inconclusive: 12.6 µM [inhibitor, partial curve, poor fit]
CCc1cccc(CC)c1NC(=O)CSc1nc2ccc(N3C(=O)C4C(C3=O)[C@H]3C=C[C@@H]4C3)cc2s1 (stereo partly drawn)	inactive
CCN(C(=O)Cn1c(=O)n2nc(CCn3nc(C)cc3C)nc2c2ccccc21)c1cccc(C)c1	inactive
CC(C)(C)Nc1nc(NC(C)(C)C)nc(-n2ccnc2)n1	inactive
CCOc1ccc2nc(SCC(=O)c3cccs3)sc2c1	inconclusive: 29.1 µM [inhibitor, single point]
COc1ccc(N2CCN(C(=O)CSc3ccc([N+](=O)[O-])cc3)CC2)cc1	inactive
COc1cc(NC(=O)c2ccco2)c(C(=O)OCC(=O)c2c[nH]c3ccccc23)cc1OC	inactive
COc1ccc(-n2nc(C(=O)NCC(=O)N3CCN(c4ccccn4)CC3)c3ccccc3c2=O)c(OC)c1	inconclusive: 35.5 µM [inhibitor, single point]
O=C(N/N=C/c1cccnc1)c1cccc(Cl)c1	inactive
Cc1cc(N2CCCCC2)ccc1[N+](=O)[O-]	inactive
Cc1ccc(Cl)cc1NC(=O)C(NS(=O)(=O)c1cccs1)c1ccccc1 (stereo not drawn)	inconclusive: 0.164 µM [inhibitor, partial curve, poor fit]
O=C(Nc1nc2ccc(S(=O)(=O)N3CCCC3)cc2s1)c1cccs1	inactive
Cc1ccc(-c2nnc(CSc3nc4cc5c(cc4cc3C)OCO5)o2)cc1	inconclusive: 4.61 µM [inhibitor, partial curve, poor fit]
CCc1cc(=O)oc2cc(C)cc(OC(C)C(=O)O)c12 (stereo not drawn)	inconclusive: 18.3 µM [activator, partial curve]
CC(CN1CCCCCC1)C(=O)NN (stereo not drawn)	inconclusive: 11.2 µM [activator, partial curve]
CC(C)[C@@H](CO)NS(=O)(=O)c1ccc(Br)cc1F	inconclusive: 0.396 µM [inhibitor, full curve, poor fit]
CCSc1ccc(-c2ccc(C)cc2)nn1	inconclusive: 10 µM [inhibitor, single point]
